Data published in PubChem BioAssay AID2685 (National Center for Advancing Translational Sciences (NCATS), 2010).
Among all 320,000 compounds or so, about 2,100 (0.66%) were called active. Inconclusive means that the source gave no clear call. Such entries were picked first, then a sample of the others. Calls follow the shape of the dose curve; as a rule, active = well fitted inhibition curve with a large enough effect in the signal ratio, with a control signal flat (not every such curve was filed as active); inconclusive = small, poorly fitted or top-dose-only effect, or effect the other way, or a change in a side signal; inactive = flat fitted curve, though single readings scatter; the % refers to the signal ratio. Potencies of inconclusive entries are doubtful fits and often do not repeat.

Test: qHTS Assay for Lipid Storage Modulators in Drosophila S3 Cells
Settings: BODIPY lipid droplet fluorescence, 18-24 h, cells fed with added oleic acid; lipid storage change, negative = inhibition: at 46.1 µM (top of the series) unless noted
In short: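 Drosophila S3 cells got compounds at several concentrations plus oleic acid (400 uM solution). Laser-scanning cytometry with 488 nm excitation read lipid droplets at 500-530 nm and cells at 575-640 nm. Percent activity was relative to 20 uM Triacsin C.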
% is scaled to controls: 0 for no effect and ±100 for the full control effect; potency is read from the fitted curve at half-maximal effect.

Row | Compound | lipid storage change, negative = inhibition | Potency
1 | COc1ccccc1N(C(=O)c1ccco1)C(C(=O)NC1CCCC1)c1ccc(N2CCOCC2)cc1 (configuration not stated) | inconclusive: -18% | 
2 | Cc1noc(NS(=O)(=O)c2ccc(NC(=O)c3cc(-c4ccccc4Cl)nc4ccccc34)cc2)c1C | inconclusive: -67.1% | 
3 | COc1cc(/C=C/c2ccc3cccc(O)c3n2)cc(OC)c1OC | inconclusive: -10.1% | 
4 | Cc1ccc2c(c1)cc(CN(Cc1ccc3c(c1)OCO3)C(=O)c1ccccc1)c1nnnn12 | inconclusive: 4.28% | 
5 | Cc1ccc(NC(=O)CNC(=O)c2cccs2)c(O)c1 |  | inconclusive: 16.4 µM [falling, single point]
6 | COc1ccccc1C(=O)NC(CCSC)C(=O)N1CCC(Cc2ccccc2)CC1 (configuration not stated) | inconclusive: 35.1% | 
7 | Cc1cccc(NC(=O)c2ccc(C(=O)c3ccccc3)cc2)n1 | inconclusive: -5.18% | 
8 | CC(=O)Cn1ncc(Br)c(Br)c1=O |  | inconclusive: 4.61 µM [falling, full curve, poor fit]
9 | O=C(CC1C(=O)NCCN1Cc1cccc(C(F)(F)F)c1)NC1CCOCC1 (configuration not stated) | inconclusive: 10.6% | 
10 | CN1/C(=C\C(=O)c2cccc([N+](=O)[O-])c2)Sc2ccccc21 |  | active: 1.84 µM
11 | CCCc1cc(-c2nc(N)ncc2-c2csc(C)n2)c(O)cc1OC | inconclusive: -4.23% | 
12 | CCN1CCN(c2ccc(NC(=O)c3ccc4c(c3)[nH]c(=O)n4Cc3ccc(F)cc3)cc2)CC1 |  | inconclusive: 23.1 µM [activator, single point]
13 | CN(Cc1ccc(Cl)c(Cl)c1)C(=O)C1=CC=CN2CCS(=O)(=O)N=C12 | inconclusive: 21.7% | 
14 | CSC1=N/C(=C\c2ccccc2)C(=O)N1C | inconclusive: 11.3% | 
15 | Cc1cc2ccccn2c1C(=O)c1ccc(Cl)cc1 |  | inconclusive: 29.1 µM [falling, single point]
16 | C/C(CCC(=O)O)=N/Nc1ccc([N+](=O)[O-])cc1[N+](=O)[O-] | inconclusive: 1.03% | 
17 | CC(C)(C)c1ccc(C(=O)NCc2nnc(SCC(=O)N3CCCc4ccccc43)n2-c2ccccc2)cc1 | inconclusive: -16.9% | 
18 | CC(C)C(OC(=O)c1ccco1)C(=O)NCc1ccco1 (configuration not stated) | inconclusive: -17.1% | 
19 | CCn1cc(/C=C/C(=O)Nc2c(C)nn(Cc3ccccc3C)c2C)cn1 |  | inconclusive: 2.31 µM [activator, partial curve]
20 | CCn1c(SCC(=O)NCc2ccccc2)nnc1-c1c[nH]c2ccccc12 | inconclusive: -1.87% | 
21 | CCCn1c(C(C)Nc2nc(-c3ccc(Cl)c([N+](=O)[O-])c3)cs2)nc2ccccc21 (configuration not stated) | inconclusive: 56.2% | 
22 | Cc1cc(NC(=O)CCC(=O)N(c2cccc(F)c2)C(C(=O)NC2CCCC2)c2ccccc2)no1 (configuration not stated) |  | inconclusive: 1.84 µM [activator, full curve]
23 | CCOc1ccc(C(=O)/C=C/Nc2ccc(S(=O)(=O)N=C(N)N)cc2)cc1 | inconclusive: 3.95% | 
24 | Nc1cc(N2CCCC2)ccc1[N+](=O)[O-] |  | inconclusive: 5.17 µM [falling, partial curve]
25 | S=C(Nc1ccccn1)c1ccccn1 | inconclusive: -51% | inconclusive: 32.6 µM [falling, single point]
26 | Cc1csc(=O)n1CCC(=O)OCC(=O)Nc1cccc(C#N)c1 | inconclusive: -4.9% | 

Row | Compound | lipid storage change, negative = inhibition | Potency
27 | Cc1cc(C)c(C#N)c(SCC(=O)NC(C)(C)C)n1 | inconclusive: -4.26% | 
28 | CC(=O)c1ccc(S(=O)(=O)NCCc2csc(-c3cccnc3)n2)cc1 | inconclusive: 12.1% | 
29 | CC(=O)Nc1ccc(C(=O)OCC(=O)NCc2ccc(Cl)cc2)cc1 | inconclusive: -8.61% | 
30 | Cc1ccc(CCN2CC(C(=O)NCCCN3CCCCCC3)CC2=O)cc1 (configuration not stated) | inconclusive: -1.19% | 
31 | Oc1ccc(N2CCN(c3ncnc4sc5c(c34)CCC5)CC2)cc1 | inconclusive: -29.7% | 
32 | CCCOc1ccc(-c2nc(-c3ccc([N+](=O)[O-])cc3)cs2)cc1 | inconclusive: -23.7% | 
33 | O=C(CCCN1C(=O)/C(=C\c2ccco2)SC1=S)Nc1cccc2ccccc12 | inconclusive: 1.23% | 
34 | O=C(N/N=C/c1cccnc1)c1cc(-c2cccs2)nc2ccccc12 | inconclusive: 31.8% | 
35 | Oc1ccccc1C=NCCN=Cc1ccccc1O | inconclusive: 14.2% | 
36 | O=c1[nH]c(/C=C\c2cccc(F)c2)nc(O)c1[N+](=O)[O-] | inconclusive: 3.98% | 
37 | O/C(=C\Sc1nnc(Cc2ccccc2)o1)c1ccc(F)cc1 | inconclusive: -34.9% | 
38 | CCOc1ccc(OCCC(=O)OC(C)C(=O)Nc2ccc(Cl)cn2)cc1 (configuration not stated) | inconclusive: -0.309% | 
39 | CCOc1ccccc1CN1CCNC(=O)C1CC(=O)NCc1ccccn1 (configuration not stated) | inconclusive: -32.6% | 
40 | CCc1ccc(OCCCCN(C)Cc2ccccc2)cc1 | inconclusive: 26.2% | 
41 | COc1ccccc1NC(=O)COc1ccccc1C(=O)Nc1ccccc1 | inconclusive: -30.7% | 
42 | O=C(COc1cccnc1[N+](=O)[O-])NCCc1ccccc1 | inconclusive: 60.3% | 
43 | CN1CC2(C(=O)c3ccccc3)CN(C)CC(C(=O)c3ccccc3)(C1)C2 |  | inconclusive: 1.84 µM [falling, partial curve]
44 | O=c1c2sccc2nc(SCc2ccc([N+](=O)[O-])cc2)n1Cc1ccccn1 | inconclusive: 29.2% | 
45 | CCOc1ccc(CNC(=O)c2ccc3nc(N4CCOCC4)sc3c2)cc1 | inconclusive: 69% | 
46 | Cc1cc(=O)n2nc(N3CCCC(C(=O)NCc4ccccc4C)C3)sc2n1 (configuration not stated) | inactive | 
47 | NC1=NC(=O)/C(=C\c2ccco2)S1 | inconclusive: 7.94% | 
48 | O=C1c2ccsc2SCCN1Cc1ccccc1Cl | inconclusive: -23.8% | 
49 | CC(=O)Nc1ccc(S(=O)(=O)NCc2ccc(C(=O)N3CCOCC3)cc2)cc1 | inconclusive: -6.23% | 
50 | CC1=C(C#N)C(=O)NC(=O)/C1=C\c1ccc(-c2cc(C)c(C)cc2[N+](=O)[O-])o1 | inconclusive: -9.99% | 
51 | O=C(C1=C(O)C(=O)N(CCN2CCOCC2)C1c1ccc(F)cc1)c1cccs1 (configuration not stated) |  | active: 18.4 µM

In another format: results already given

| Row | Compound | lipid storage change, negative = inhibition | Potency |
| --- | --- | --- | --- |
| 27 | Cc1cc(C)c(C#N)c(SCC(=O)NC(C)(C)C)n1 | inconclusive: -4.26% |  |
| 28 | CC(=O)c1ccc(S(=O)(=O)NCCc2csc(-c3cccnc3)n2)cc1 | inconclusive: 12.1% |  |
| 32 | CCCOc1ccc(-c2nc(-c3ccc([N+](=O)[O-])cc3)cs2)cc1 | inconclusive: -23.7% |  |
| 35 | Oc1ccccc1C=NCCN=Cc1ccccc1O | inconclusive: 14.2% |  |
| 40 | CCc1ccc(OCCCCN(C)Cc2ccccc2)cc1 | inconclusive: 26.2% |  |
| 44 | O=c1c2sccc2nc(SCc2ccc([N+](=O)[O-])cc2)n1Cc1ccccn1 | inconclusive: 29.2% |  |
| 45 | CCOc1ccc(CNC(=O)c2ccc3nc(N4CCOCC4)sc3c2)cc1 | inconclusive: 69% |  |
| 47 | NC1=NC(=O)/C(=C\c2ccco2)S1 | inconclusive: 7.94% |  |
| 48 | O=C1c2ccsc2SCCN1Cc1ccccc1Cl | inconclusive: -23.8% |  |
| 51 | O=C(C1=C(O)C(=O)N(CCN2CCOCC2)C1c1ccc(F)cc1)c1cccs1 (configuration not stated) |  | active: 18.4 µM |
